System: pig skin
Assay: Evidence of bonding to pig skin
Conditions: for abs (~355 nm), 100% comparative value: direct measurement without application to pig skin; for abs (~355 nm) of residue: pig skin 24 h, isopropanol extract
Protocol: • 2% solution of DHAB in Arlasolve DMI sample (A) and Pelemol BIP sample (B) • formulation containing 1% of DHAB sample (C) [=54-07-5-A, from Example V] • 2% solution of DHHB in Arlasolve DMI sample (D) and isopropyl myristate sample (E) formulations containing 0.84% of DHHB sample (F) [=54-07-5-B from Example V] and 0.84% of DHHB+0.37% of vitamin C sample (G) [=54-07-5-C from Example V]. • pig skin is cut to 2.5×7.5 cm and placed on Plexiglas specimen slides. Procedure:
50 µl of each of samples (A) to (G) are dripped onto the specimen slides with pig skin, spread using a plastic spatula, and the specimen slides are stored in a desiccator [87% atmospheric humidity through sat. KCl solution] at room temperature for 24 h. The specimen slides are then rinsed with 50 ml of isopropanol into volumetric flasks, treated in an ultrasound bath for 5 min, clear-filtered via syringe filters (cloudiness due to detached skin constituents and measured by UV spectrometer (400-250 nm; UVmax˜355 nm) (residue 1 to 7). The 100% comparative value used are 50 ml isopropanol solutions of in each case 50 µl of samples (A) to (G), which are likewise measured by UV spectrometer.

SMILES	abs (~355 nm), 100% comparative value (1% in W/O 54-07-5-A)	abs (~355 nm) of residue (1% in W/O 54-07-5-A)	abs (~355 nm), 100% comparative value (2% in Arlasolve DMI)	abs (~355 nm) of residue (2% in Arlasolve DMI)	abs (~355 nm), 100% comparative value (2% in Pelemol BIP)	abs (~355 nm) of residue (2% in Pelemol BIP)	abs (~355 nm), 100% comparative value (0.84% in W/O 54-07-5-B)	abs (~355 nm) of residue (0.84% in W/O 54-07-5-B)	abs (~355 nm), 100% comparative value (2% in isopropyl myristate)	abs (~355 nm) of residue (2% in isopropyl myristate)
CCN(CC)c1ccc(C(=O)c2ccccc2C(=O)OC[C@@H](O)[C@H]2OC(=O)C(O)=C2O)c(O)c1 [DHAB, (R)-2-((R)-3,4-dihydroxy-5-oxo-2,5-dihydrofuran-2-yl)-2-hydroxyethyl 2-(4-diethylamino-2-hydroxybenzoyl)benzoate]	0.459	0.042	1.501	0.047	1.375	0.152				
CCCCCCOC(=O)c1ccccc1C(=O)c1ccc(N(CC)CC)cc1O [DHHB, hexyl 2-(4-diethylamino-2-hydroxybenzoyl)benzoate]			2.023	2.013			0.730	0.691	1.504	1.477
